# Test results reported in paper PMC11734815.
# Protein sequences, listed by entry. Tags and fused reporters are not part of them.
# UniProt Q61686: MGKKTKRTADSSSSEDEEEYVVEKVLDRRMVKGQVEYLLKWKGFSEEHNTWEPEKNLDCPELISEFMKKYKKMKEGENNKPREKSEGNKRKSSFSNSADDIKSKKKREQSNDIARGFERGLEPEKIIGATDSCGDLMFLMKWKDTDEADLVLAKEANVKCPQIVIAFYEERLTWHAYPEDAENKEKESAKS
# No constants are given. Whether binding was seen depends on the method and setting. In cells and extracts the contact can be indirect. Some entries that bind do so weakly or less than the wild type.
# B1: ubiquitin-specific protease 15 (USP15) (enzyme, UniProt Q8R5H1 1-981)
# chain: MAEGGAADLDTQRSDIATLLKTSLRKGDTWYLVDSRWFKQWKKYVGFDSWDKYQMGDQNVYPGPIDNSGLLKDGDAQSLKEHLIDELDYILLPTEGWNKLVSWYTLMEGQEPIARKVVEQGMFVKHCKVEVYLTELKLCENGNMNNVVTRRFSKADTIDTIEKEIRKIFNIPDEKEARLWNKYMSNTFEPLNKPDSTIQDAGLYQGQVLVIEQKNEDGTWPRGPSTPKSPGASNFSTLPKISPSSLSNNYNNINNRNVKNSNYCLPSYTAYKNYDYSEPGRNNEQPGLCGLSNLGNTCFMNSAIQCLSNTPPLTEYFLNDKYQEELNFDNPLGMRGEIAKSYAELIKQMWSGKFSYVTPRAFKTQVGRFAPQFSGYQQQDCQELLAFLLDGLHEDLNRIRKKPYIQLKDADGRPDKVVAEEAWENHLKRNDSIIVDIFHGLFKSTLVCPECAKISVTFDPFCYLTLPLPMKKERSLEVYLVRMDPLAKPMQYKVIVPKIGNILDLCTALSALSGVPADKMIVTDIYNHRFHRIFAVDENLSSIMERDDIYVFEININRAEDTEHVVIPVCLREKFRHSSYTHHTGSSLFGQPFLMAIPRNNTEDKLYNLLLLRMCRYVKMSTETEETDGHLRCCEDQNINGNGPNGLHEEGSPSEMETDEPDDESSQDQELPSENENSQSEDSVGGDNDSENGLCTEETCKGQLTGHKKRLFTFQFNNLGNNDINYIKDDTSHIRFDDRQLRLDERSFLALDWDPDLKKRYFDENAAEDFEKHESVEYKPPKRPFVKLKDCIELFTTKEKLGAEDPWYCPNCKEHQQATKKLDLWSLPPVLVVHLKRFSYSRYMRDKLDTLVDFPISDLDMSEFLINPNAGPCRYNLIAVSNHYGGMGGGHYTAFAKNKDDGKWYYFDDSSVSTASEDQIVSKAAYVLFYQRQDTFSGTGFFPLDRETKGASAATGIPLESDEDSNDNDNDLENENCMHTN
# Molecular target: chromobox 5 (CBX5) (mouse (endogenous in primary PASMCs)) (UniProt Q61686)
# Test: co-IP; lysates of control and hypoxic PASMCs; anti-CBX5 antibody overnight at 4 °C, protein G/A beads; washed with 50 mM Tris-HCl pH 7.4, 100 mM NaCl, 5 mM CaCl2, 5 mM MgCl2, 0.1% Nonidet P-40; western blot with anti-USP15
binder,measurement,value
B1,binding,binds
